Source: patent US20090111753A1, “Nogo-A Polypeptide Fragments, Variant Nogo Receptor-1 Polypeptides, and Uses Thereof” (Yale University, priority 2004, published 2009)
Changes are numbered by the printed parent chain. In names and notes the source's numbering stands. These are yes or no findings as the source states them, for the method shown. Some entries that bind do so weakly or less than the wild type.

What was measured:
Experiment in all cases: AP-ligand binding, COS-7
[1] = target: T1, human NgR1 alanine mutant 196, 199 (human) (UniProt Q9BZR6)
T1 sequence: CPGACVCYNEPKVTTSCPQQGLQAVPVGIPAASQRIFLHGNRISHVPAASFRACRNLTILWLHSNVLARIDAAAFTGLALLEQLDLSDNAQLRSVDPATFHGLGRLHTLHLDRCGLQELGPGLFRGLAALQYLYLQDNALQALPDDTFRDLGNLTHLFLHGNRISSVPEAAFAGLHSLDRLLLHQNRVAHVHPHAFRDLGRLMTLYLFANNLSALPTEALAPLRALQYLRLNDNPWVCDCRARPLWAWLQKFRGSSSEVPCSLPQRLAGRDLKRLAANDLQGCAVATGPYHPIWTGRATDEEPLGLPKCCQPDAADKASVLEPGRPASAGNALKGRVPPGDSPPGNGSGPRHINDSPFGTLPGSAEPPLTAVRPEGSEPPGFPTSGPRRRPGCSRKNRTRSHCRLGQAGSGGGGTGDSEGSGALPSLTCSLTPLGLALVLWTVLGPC

[2] = target: T2, human NgR1 alanine mutant 189, 191, 237 (human) (UniProt Q9BZR6)
T2 sequence: T1 sequence with R163A, S165A, A170R, A173R, N211A

[3] = target: T3, wild type human NgR1 expressed on COS-7 cells (human) (UniProt Q9BZR6)
T3 sequence: T1 sequence with A170R, A173R

[4] = target: T4, human NgR1 alanine mutant 78, 81 (human) (UniProt Q9BZR6)
T4 sequence: T1 sequence with R52A, R55A, A170R, A173R

[5] = target: T5, human NgR1 alanine mutant 277, 279 (human) (UniProt Q9BZR6)
T5 sequence: T1 sequence with A170R, A173R, K251A, R253A

Measured: binding

B1: AP-Nogo-66 (ligand, UniProt Q9NQC3 1055-1120, looked up)
chain: RIYKGVIQAIQKSDEGHPFRAYLESEVAISEELVQKYSNSALGHVNCTIKELRRLFLVDDLVDSLK
notes: domain: Nogo-66; construct described elsewhere (Fournier 2001); also called AP-Ng66; Ng66; not shown: alkaline phosphatase (AP); construct described elsewhere
binds: [1] | [2] | [3] | [4] | [5]

B2: AP-fused Amino-Nogo fragment B4C (a.a. 950-1018) (ligand)
chain: LLPPDVSALATQAEIESIVKPKVLVKEAEKKLPSDTEKEDRSPSAIFSAELSKTSVVDLLYWRDIKKTG
notes: also called AmNg B4C; AP-B4C; not shown: alkaline phosphatase (AP), vector pcAP6
binds: [1] | [2] | [3] | [4] | [5]
